Taken from: PubChem BioAssay AID1224830 (NIAID, 2016)

- Test: 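Genes whose knock-down alters the TNF-alpha reporter response to LPS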 (primary screen)
- Cells: human THP-1 monocytic leukaemia cells, TNF dual-luciferase reporter clone, PMA-differentiated to macrophage-like cells
- Reagent: siRNA pool against human genes, 50 nM
- Duration: LPS for 4 h, given about 3 days after siRNA transfection
- Treatment: bacterial LPS (TLR4 ligand), 10 ng/ml
- Read-out: 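Ratio of firefly to renilla light, scaled to the plate median and expressed as a robust z-score per replicate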
- Direction: TNF reporter robust z-score: higher = stronger TNF reporter response to LPS
- Rule for the call: 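a well is active when its z-score exceeds 2.8 or falls below -1.5; control wells carry no call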
The whole screen tested about 18,000 reagents; shown is a random part of them. About 2,900 of all reagents (16%) were called active. 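Calls are made per well; low scores hint the gene aids the LPS response, high scores that it dampens it.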 Repeated entries: four replicate wells of each siRNA pool. Reagent sequences are not shown.

Which result is listed for CD300LD-AS1?
TNF reporter robust z-score: 0.3; Call: inactive

Which result is listed for CD300LD-AS1?
TNF reporter robust z-score: -0.85; Call: inactive

With CD300LD-AS1, what was measured?
TNF reporter robust z-score: -0.26; Call: inactive

With CD300LD-AS1, what does the deposit list?
TNF reporter robust z-score: 0.92; Call: inactive

With TEX47, how do the results read?
TNF reporter robust z-score: 1.71; Call: inactive

How did the screen score TEX47?
TNF reporter robust z-score: 0.68; Call: inactive

With TEX47, how do the results read?
TNF reporter robust z-score: 0.02; Call: inactive

How did the screen score TEX47?
TNF reporter robust z-score: 0.74; Call: inactive

Which result is listed for ZNF280B?
TNF reporter robust z-score: -0.97; Call: inactive

Which result is listed for ZNF280B?
TNF reporter robust z-score: -0.55; Call: inactive

What is on record for ZNF280B?
TNF reporter robust z-score: -0.4; Call: inactive

For ZNF280B, how do the results read?
TNF reporter robust z-score: -0.76; Call: inactive

With CUEDC1, what was measured?
TNF reporter robust z-score: -0.32; Call: inactive

What did the screen give for CUEDC1?
TNF reporter robust z-score: -0.98; Call: inactive

For CUEDC1, what does the deposit list?
TNF reporter robust z-score: 0.16; Call: inactive

How did the screen score RPP25L?
TNF reporter robust z-score: 0.02; Call: inactive

For RPP25L, what does the deposit list?
TNF reporter robust z-score: 0.54; Call: inactive

What did the screen give for RPP25L?
TNF reporter robust z-score: -1.69; Call: active

With RPP25L, what does the deposit list?
TNF reporter robust z-score: -1.62; Call: active

Which result is listed for PNPLA8?
TNF reporter robust z-score: 0.68; Call: inactive

With PNPLA8, what does the deposit list?
TNF reporter robust z-score: 1.72; Call: inactive

With PNPLA8, what does the deposit list?
TNF reporter robust z-score: 0.87; Call: inactive

Which result is listed for PNPLA8?
TNF reporter robust z-score: 0.34; Call: inactive

What did the screen give for CLPTM1L?
TNF reporter robust z-score: -0.75; Call: inactive

For CLPTM1L, what does the deposit list?
TNF reporter robust z-score: -0.97; Call: inactive

With CLPTM1L, what was measured?
TNF reporter robust z-score: -0.93; Call: inactive

For CLPTM1L, how do the results read?
TNF reporter robust z-score: -0.81; Call: inactive

Part of the list above, set out differently.
| target gene | TNF reporter robust z-score | Call |
| --- | --- | --- |
| TEX47 | 1.71 | inactive |
| TEX47 | 0.68 | inactive |
| TEX47 | 0.02 | inactive |
| TEX47 | 0.74 | inactive |
| ZNF280B | -0.97 | inactive |

The list goes on.
For INPP1, what was measured?
TNF reporter robust z-score: -0.01; Call: inactive

With INPP1, what does the deposit list?
TNF reporter robust z-score: -0.13; Call: inactive

With INPP1, what does the deposit list?
TNF reporter robust z-score: -0.33; Call: inactive

What is on record for INPP1?
TNF reporter robust z-score: 0.39; Call: inactive

For OR10J1, what does the deposit list?
TNF reporter robust z-score: 1.22; Call: inactive

For OR10J1, what was measured?
TNF reporter robust z-score: 1.68; Call: inactive

For OR10J1, what was measured?
TNF reporter robust z-score: 0.57; Call: inactive

With OR10J1, how do the results read?
TNF reporter robust z-score: 0.24; Call: inactive

With ZNF721, what was measured?
TNF reporter robust z-score: -0.32; Call: inactive

For ZNF721, what was measured?
TNF reporter robust z-score: -0.07; Call: inactive

With ZNF721, how do the results read?
TNF reporter robust z-score: 0.25; Call: inactive

What is on record for ZNF721?
TNF reporter robust z-score: 0.05; Call: inactive

With CACNA1A, how do the results read?
TNF reporter robust z-score: 0.53; Call: inactive

What did the screen give for CACNA1A?
TNF reporter robust z-score: 1.32; Call: inactive

With CACNA1A, what does the deposit list?
TNF reporter robust z-score: 1.2; Call: inactive

With CACNA1A, how do the results read?
TNF reporter robust z-score: 1.1; Call: inactive

What did the screen give for ACSM1?
TNF reporter robust z-score: -0.51; Call: inactive

For ACSM1, what was measured?
TNF reporter robust z-score: -0.25; Call: inactive

With ACSM1, how do the results read?
TNF reporter robust z-score: -0.49; Call: inactive

For ACSM1, how do the results read?
TNF reporter robust z-score: -0.79; Call: inactive

With COX19, what was measured?
TNF reporter robust z-score: 0.72; Call: inactive

With COX19, what does the deposit list?
TNF reporter robust z-score: 0.92; Call: inactive

Which result is listed for COX19?
TNF reporter robust z-score: -0.11; Call: inactive

For COX19, what was measured?
TNF reporter robust z-score: 1.19; Call: inactive

With CDKN3, what does the deposit list?
TNF reporter robust z-score: -0.88; Call: inactive

What is on record for CDKN3?
TNF reporter robust z-score: 0.38; Call: inactive

What did the screen give for CDKN3?
TNF reporter robust z-score: 0.24; Call: inactive

With CDKN3, how do the results read?
TNF reporter robust z-score: -0.76; Call: inactive

What is on record for CERKL?
TNF reporter robust z-score: -1.09; Call: inactive

Which result is listed for CERKL?
TNF reporter robust z-score: -1.27; Call: inactive

Which result is listed for CERKL?
TNF reporter robust z-score: -0.6; Call: inactive

With CERKL, what does the deposit list?
TNF reporter robust z-score: -0.71; Call: inactive

What did the screen give for CST11?
TNF reporter robust z-score: -0.74; Call: inactive

How did the screen score CST11?
TNF reporter robust z-score: 0.91; Call: inactive

How did the screen score CST11?
TNF reporter robust z-score: -0.33; Call: inactive

For CST11, how do the results read?
TNF reporter robust z-score: -0.1; Call: inactive
